{"source": "PubChem BioAssay AID504465", "about": "(National Center for Advancing Translational Sciences (NCATS), 2011)", "note": "Among all 2,100 compounds or so, about 210 (10%) were called active. Inconclusive means that the source gave no clear call. Such entries were picked first, then a sample of the others. Calls come from the whole dose curve; as a rule, active = well fitted inhibition curve with a large enough effect; inconclusive = small, poorly fitted or top-dose-only effect, or effect the other way; inactive = no such curve, though single readings can be large or run the other way. Potencies of inconclusive entries are doubtful fits and often do not repeat. Potency is the fitted concentration of half-maximal effect.", "data": [{"test": "IN Cell qHTS Assay for Inhibitors of the mTORC1 Signaling Pathway in MEF (Tsc2-/-, p53-/-) Cells: Sytravon; note: nearly all actives have a fitted effect of over 60% in size", "details": "phospho-rpS6 immunofluorescence, 24 h; series mostly up to 38.3 µM", "in_short": "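Tsc2-/-, p53-/- MEFs (empty-vector) treated with compound 24 h at 37 degree Celsius, then fixed and stained for phospho-rpS6 Ser235/236 (Alexa-488) plus Hoechst. Reported as % positive cells, thresholds set against 7.5 nM rapamycin and DMSO wells.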", "values": [{"smiles": "COC(=O)c1cc(C)nc2c1c(=O)nc(SCc1ccccc1Cl)n2C1CC1", "Potency": "inactive"}, {"smiles": "CCC1CN(C(=O)NCc2ccccc2)c2cc(Cl)ccc2O1", "note": "(stereo not drawn)", "Potency": "inconclusive: 0.261 µM [falling, full curve, poor fit]"}, {"smiles": "CCOC(=O)c1ccc(NC(=O)CSc2ccc(-c3ccccn3)nn2)cc1", "Potency": "inconclusive: 26.1 µM [falling, single point]"}, {"smiles": "CCN(CC)c1cc(C)c2cc(NC(=O)c3ccccc3Cl)ccc2n1", "Potency": "inactive"}, {"smiles": "COc1ccc(-n2cc(C(=O)N(CCN(C)C)Cc3ccccc3)c3ccccc3c2=O)cc1", "Potency": "inactive"}, {"smiles": "COc1cccc(-n2c(SCc3ccc(F)cc3)nc3c([nH]c4ccccc43)c2=O)c1", "Potency": "inconclusive: 14.7 µM [falling, single point]"}, {"smiles": "Cc1cc(C)c(NC(=O)Cn2c(=O)n(Cc3ccc(C(=O)NCc4ccc5c(c4)OCO5)cc3)c(=O)c3ccccc32)c(C)c1", "Potency": "active: 4.14 µM"}, {"smiles": "CCCN1C(=O)C(O)(CC(=O)c2ccc(C(C)C)cc2)c2ccccc21", "note": "(stereo not drawn)", "Potency": "inactive"}, {"smiles": "CCOC(=O)c1ccc(N2C(=O)c3[nH]nc(-c4ccccc4)c3C2c2cccs2)cc1", "note": "(stereo not drawn)", "Potency": "inconclusive: 26.1 µM [falling, single point]"}, {"smiles": "COc1cccc(NC(=O)C(=O)NCCc2sc(-c3cccc(C)c3)nc2C)c1", "Potency": "inconclusive: 23.3 µM [falling, single point]"}, {"smiles": "COc1ccc(-c2cc(NCc3ccc(C)cc3)n3cnnc3n2)cc1", "Potency": "inactive"}, {"smiles": "COc1ccc(-c2cc(C(F)(F)F)nc(S(=O)(=O)CCCC(=O)Nc3ccccc3C(F)(F)F)n2)cc1OC", "Potency": "inconclusive: 23.3 µM [falling, single point]"}, {"smiles": "Cc1ccc(C)c(N2CCN(CCCNC(=O)Cn3c(-c4cccs4)cc4ccccc43)CC2)c1", "Potency": "inconclusive: 23.3 µM [falling, single point]"}, {"smiles": "CCCn1cc(S(=O)(=O)c2cccc(Cl)c2)c(=O)c2cc(F)c(N3CCN(CC)CC3)cc21", "Potency": "inconclusive: 14.7 µM [falling, single point]"}, {"smiles": "Cc1cc(OCC(=O)NCC2(N(C)C)CCCCC2)cc(C)c1Cl", "Potency": "inconclusive: 0.585 µM [falling, full curve, poor fit]"}, {"smiles": "CCCCN1C(=O)C(O)(c2c(C)[nH]c3ccccc23)c2cc(Br)ccc21", "note": "(stereo not drawn)", "Potency": "inactive"}, {"smiles": "O=C1CC(c2ccccc2)Cc2[nH]c(=O)c(-c3nc(-c4ccc(F)cc4)cs3)cc21", "note": "(stereo not drawn)", "Potency": "inconclusive: 0.117 µM [falling, full curve, poor fit]"}, {"smiles": "CCOc1ccc(/C=C/c2nc(C#N)c(N(C)C)o2)cc1", "Potency": "inconclusive: 18.5 µM [falling, single point]"}]}]}
